From article PMC6375729
No constants are given. Whether binding was seen depends on the method and setting. In cells and extracts the contact can be indirect. These calls come from enrichment with a bait or labelling near it, and not all partners need be listed.

Biological target: 3×FLAG-BRD2 (human), P25440
Assay: affinity purification with mass spectrometry; 3×FLAG-BET baits in Flp-In T-REx HEK293, anti-FLAG M2 beads, chromatin-optimised lysis (100 mM KCl, sonication, benzonase); cells untreated or with 500 nM JQ1 for 10, 60 or 240 min; SAINT FDR ≤1%
Conditions: remark: other sources report otherwise

binding: binds
B1: WHSC1 (endogenous), O96028 1-1365 (protein)
chain: MEFSIKQSPLSVQSVVKCIKMKQAPEILGSANGKTPSCEVNRECSVFLSKAQLSSSLQEGVMQKFNGHDALPFIPADKLKDLTSRVFNGEPGAHDAKLRFESQEMKGIGTPPNTTPIKNGSPEIKLKITKTYMNGKPLFESSICGDSAADVSQSEENGQKPENKARRNRKRSIKYDSLLEQGLVEAALVSKISSPSDKKIPAKKESCPNTGRDKDHLLKYNVGDLVWSKVSGYPWWPCMVSADPLLHSYTKLKGQKKSARQYHVQFFGDAPERAWIFEKSLVAFEGEGQFEKLCQESAKQAPTKAEKIKLLKPISGKLRAQWEMGIVQAEEAASMSVEERKAKFTFLYVGDQLHLNPQVAKEAGIAAESLGEMAESSGVSEEAAENPKSVREECIPMKRRRRAKLCSSAETLESHPDIGKSTPQKTAEADPRRGVGSPPGRKKTTVSMPRSRKGDAASQFLVFCQKHRDEVVAEHPDASGEEIEELLRSQWSLLSEKQRARYNTKFALVAPVQAEEDSGNVNGKKRNHTKRIQDPTEDAEAEDTPRKRLRTDKHSLRKRDTITDKTARTSSYKAMEAASSLKSQAATKNLSDACKPLKKRNRASTAASSALGFSKSSSPSASLTENEVSDSPGDEPSESPYESADETQTEVSVSSKKSERGVTAKKEYVCQLCEKPGSLLLCEGPCCGAFHLACLGLSRRPEGRFTCSECASGIHSCFVCKESKTDVKRCVVTQCGKFYHEACVKKYPLTVFESRGFRCPLHSCVSCHASNPSNPRPSKGKMMRCVRCPVAYHSGDACLAAGCSVIASNSIICTAHFTARKGKRHHAHVNVSWCFVCSKGGSLLCCESCPAAFHPDCLNIEMPDGSWFCNDCRAGKKLHFQDIIWVKLGNYRWWPAEVCHPKNVPPNIQKMKHEIGEFPVFFFGSKDYYWTHQARVFPYMEGDRGSRYQGVRGIGRVFKNALQEAEARFREIKLQREARETQESERKPPPYKHIKVNKPYGKVQIYTADISEIPKCNCKPTDENPCGFDSECLNRMLMFECHPQVCPAGEFCQNQCFTKRQYPETKIIKTDGKGWGLVAKRDIRKGEFVNEYVGELIDEEECMARIKHAHENDITHFYMLTIDKDRIIDAGPKGNYSRFMNHSCQPNCETLKWTVNGDTRVGLFAVCDIPAGTELTFNYNLDCLGNEKTVCRCGASNCSGFLGDRPKTSTTLSSEEKGKKTKKKTRRRRAKGEGKRQSEDECFRCGDGGQLVLCDRKFCTKAYHLSCLGLGKRPFGKWECPWHHCDVCGKPSTSFCHLCPNSFCKEHQDGTAFSCTPDGRSYCCEHDLGAASVRSTKTEKPPPEPGKPKGKRRRRRGWRRVTEGK
